According to patent publication US20160024213A1 (VIB VZW, published 2016):
Where a chain is given by its changes, count along the chain named. These are yes or no findings as the source states them, for the method shown. Binding calls can cover weak binding; strength is not graded here.

B1: NbhmMMRm3.49 (VHH)
VHH: QVQLQESGGGLVQPGGSLRLSCAASGFSLDYYAIGWFRQAPGKEREGISCISYKGGSTTYADSVKGRFTISKDNAKNTAYLQMNSLKPEDTGIYSCAAGFVCYNYDYWGQGTQVTVSS
B2: NbhMMRm3.1 (VHH)
VHH: B1 VHH with S28T, S85N, S95Y, Q110P

Biological target: recombinant MMR (species not said in the sentence)
Assay: SPR

Row | Binder | binding
1 | B1 | binds
2 | B2 | binds
